# Laboratory results: patent US20090288227A1, “Improvements in or Relating to Starch Storage in Plants” (University of Durham, priority 2006, published 2009)
# At least one structure is not confirmed: it was looked up by name or label, or the drawing left a doubt.
# Test system: tnp seedlings
# Assay: Penetrance of the tnp phenotype in seedlings germinated and grown on medium containing the compound
# Type: in vivo, Arabidopsis thaliana
# Settings: tnp seed germinated and grown in presence of the compound; result in words
# Procedure: In order to establish whether the incomplete penetrance was due to methylation-dependent gene silencing, individual T3 sibling lines were germinated in the presence of 100 μM 5-azacytidine, a methylation inhibitor (Jones and Taylor, 1980 Cell 20, 85-93). […]
# The tnp mutant phenotype is similar to that of the pkl mutant, which is characterised by the development of swollen and greenish roots that accumulate triacylglycerols and protein bodies (Ogas et al, 1997 Science 277, 91-94; Ogas et al, 1999 Proc. Natl. Acad. Sci. USA 96, 13839-13844). The penetrance of the pkl mutant phenotype is also variable and is affected by gibberellic acid and the gibberellin biosynthesis inhibitor, uniconazole-P. In order to determine whether growth factors have an effect on the penetrance of the tnp phenotype, the tnp seed was germinated and grown in the presence of a number of compounds (see Table 2).
# Given the large quantities of starch stored in tnp, the effect of sugars on penetrance was examined. […] Furthermore, the effect of 1% glucose or fructose was not as potent as the effect obtained from sucrose alone. […] The effect of sugars on the penetrance of tnp was not due to an osmotic effect, since mannitol was ineffective at inducing penetrance in the absence of sugar (data not shown).
smiles,measurement,value
"O=C(O)Cc1cccc2ccccc12 [NAA, naphthaleneacetic acid]",effect on penetrance of the tnp phenotype,positive effect
